Our source for the log2 fold change values is the supplement of paper PMC10849652.

Amino acid sequences for entries named in this document (tags omitted). A change or cut given only in a name is not applied to a line headed by its entry.
UniProt Q2TAA5: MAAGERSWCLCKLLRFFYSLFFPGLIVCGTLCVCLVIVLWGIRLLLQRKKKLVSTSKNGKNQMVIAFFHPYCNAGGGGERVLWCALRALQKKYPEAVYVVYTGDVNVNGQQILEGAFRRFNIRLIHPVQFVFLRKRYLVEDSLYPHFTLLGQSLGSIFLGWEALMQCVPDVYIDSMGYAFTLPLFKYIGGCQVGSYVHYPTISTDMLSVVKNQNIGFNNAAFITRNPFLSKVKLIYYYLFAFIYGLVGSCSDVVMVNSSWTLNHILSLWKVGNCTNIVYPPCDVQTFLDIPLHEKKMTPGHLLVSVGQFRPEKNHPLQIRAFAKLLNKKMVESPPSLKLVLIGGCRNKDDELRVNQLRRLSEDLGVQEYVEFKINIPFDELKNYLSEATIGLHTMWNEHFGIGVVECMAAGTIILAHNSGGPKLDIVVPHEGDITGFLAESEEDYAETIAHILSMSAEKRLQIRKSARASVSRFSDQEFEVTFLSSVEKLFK
UniProt Q8N6D5: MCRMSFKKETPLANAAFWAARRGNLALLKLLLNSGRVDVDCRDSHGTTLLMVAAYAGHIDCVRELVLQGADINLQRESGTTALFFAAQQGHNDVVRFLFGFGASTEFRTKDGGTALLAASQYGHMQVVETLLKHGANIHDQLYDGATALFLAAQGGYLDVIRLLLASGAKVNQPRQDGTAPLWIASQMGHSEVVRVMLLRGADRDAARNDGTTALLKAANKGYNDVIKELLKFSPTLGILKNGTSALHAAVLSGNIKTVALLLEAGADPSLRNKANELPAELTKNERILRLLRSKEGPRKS
UniProt Q6AI12: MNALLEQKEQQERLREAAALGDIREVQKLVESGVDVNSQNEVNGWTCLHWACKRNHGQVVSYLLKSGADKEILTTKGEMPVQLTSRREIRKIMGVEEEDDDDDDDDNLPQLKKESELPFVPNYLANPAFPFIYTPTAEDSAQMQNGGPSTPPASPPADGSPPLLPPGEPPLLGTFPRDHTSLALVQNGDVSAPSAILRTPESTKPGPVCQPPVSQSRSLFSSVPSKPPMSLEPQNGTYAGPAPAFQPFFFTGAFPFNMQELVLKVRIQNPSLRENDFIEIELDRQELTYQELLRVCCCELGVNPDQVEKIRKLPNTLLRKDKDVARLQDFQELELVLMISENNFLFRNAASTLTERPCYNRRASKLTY
UniProt O00189: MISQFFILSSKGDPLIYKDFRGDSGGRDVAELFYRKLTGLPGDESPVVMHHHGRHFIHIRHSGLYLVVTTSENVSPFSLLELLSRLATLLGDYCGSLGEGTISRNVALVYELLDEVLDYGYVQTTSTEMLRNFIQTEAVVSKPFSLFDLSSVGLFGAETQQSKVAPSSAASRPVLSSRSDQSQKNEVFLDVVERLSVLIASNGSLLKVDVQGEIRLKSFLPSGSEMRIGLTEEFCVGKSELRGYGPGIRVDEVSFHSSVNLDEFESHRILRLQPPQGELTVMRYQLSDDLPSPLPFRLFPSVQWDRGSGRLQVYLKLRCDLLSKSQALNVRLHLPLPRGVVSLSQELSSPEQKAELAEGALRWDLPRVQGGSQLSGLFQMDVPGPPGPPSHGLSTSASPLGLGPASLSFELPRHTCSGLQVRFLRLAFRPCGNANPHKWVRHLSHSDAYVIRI
UniProt Q8IY63: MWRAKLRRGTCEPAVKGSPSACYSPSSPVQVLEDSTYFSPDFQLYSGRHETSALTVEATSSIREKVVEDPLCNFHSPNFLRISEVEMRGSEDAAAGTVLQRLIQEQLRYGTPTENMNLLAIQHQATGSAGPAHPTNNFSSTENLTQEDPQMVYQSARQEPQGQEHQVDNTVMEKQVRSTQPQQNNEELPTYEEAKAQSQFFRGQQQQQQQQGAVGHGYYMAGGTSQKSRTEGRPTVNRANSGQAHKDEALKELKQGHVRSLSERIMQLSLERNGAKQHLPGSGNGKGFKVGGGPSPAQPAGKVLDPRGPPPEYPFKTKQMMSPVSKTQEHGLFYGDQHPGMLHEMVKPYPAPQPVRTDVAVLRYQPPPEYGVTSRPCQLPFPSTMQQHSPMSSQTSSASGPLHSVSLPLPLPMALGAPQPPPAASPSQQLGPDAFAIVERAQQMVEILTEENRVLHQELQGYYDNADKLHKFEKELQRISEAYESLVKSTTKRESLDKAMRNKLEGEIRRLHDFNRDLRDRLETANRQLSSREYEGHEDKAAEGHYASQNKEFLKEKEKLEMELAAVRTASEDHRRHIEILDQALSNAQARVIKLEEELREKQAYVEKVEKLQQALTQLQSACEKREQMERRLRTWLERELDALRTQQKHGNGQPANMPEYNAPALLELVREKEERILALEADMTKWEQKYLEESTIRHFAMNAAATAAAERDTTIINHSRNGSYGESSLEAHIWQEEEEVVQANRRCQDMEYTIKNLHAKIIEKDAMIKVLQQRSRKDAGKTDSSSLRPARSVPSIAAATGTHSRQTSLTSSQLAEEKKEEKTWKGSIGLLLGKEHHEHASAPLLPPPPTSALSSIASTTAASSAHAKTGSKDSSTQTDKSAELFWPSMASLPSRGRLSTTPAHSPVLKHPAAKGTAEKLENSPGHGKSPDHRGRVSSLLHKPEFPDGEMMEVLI
UniProt P49189: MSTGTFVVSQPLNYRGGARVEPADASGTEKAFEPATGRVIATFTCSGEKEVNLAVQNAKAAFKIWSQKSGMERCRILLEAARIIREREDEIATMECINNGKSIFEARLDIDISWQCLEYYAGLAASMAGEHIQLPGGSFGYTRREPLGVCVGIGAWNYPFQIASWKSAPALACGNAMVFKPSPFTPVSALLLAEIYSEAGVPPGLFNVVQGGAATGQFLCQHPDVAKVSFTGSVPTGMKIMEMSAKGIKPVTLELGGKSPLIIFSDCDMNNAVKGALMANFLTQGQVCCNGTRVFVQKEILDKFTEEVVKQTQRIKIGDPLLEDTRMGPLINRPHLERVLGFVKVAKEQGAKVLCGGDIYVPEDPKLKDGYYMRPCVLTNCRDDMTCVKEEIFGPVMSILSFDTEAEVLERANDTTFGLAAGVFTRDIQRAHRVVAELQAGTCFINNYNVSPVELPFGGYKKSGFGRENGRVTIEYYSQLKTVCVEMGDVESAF
UniProt Q9HCJ1: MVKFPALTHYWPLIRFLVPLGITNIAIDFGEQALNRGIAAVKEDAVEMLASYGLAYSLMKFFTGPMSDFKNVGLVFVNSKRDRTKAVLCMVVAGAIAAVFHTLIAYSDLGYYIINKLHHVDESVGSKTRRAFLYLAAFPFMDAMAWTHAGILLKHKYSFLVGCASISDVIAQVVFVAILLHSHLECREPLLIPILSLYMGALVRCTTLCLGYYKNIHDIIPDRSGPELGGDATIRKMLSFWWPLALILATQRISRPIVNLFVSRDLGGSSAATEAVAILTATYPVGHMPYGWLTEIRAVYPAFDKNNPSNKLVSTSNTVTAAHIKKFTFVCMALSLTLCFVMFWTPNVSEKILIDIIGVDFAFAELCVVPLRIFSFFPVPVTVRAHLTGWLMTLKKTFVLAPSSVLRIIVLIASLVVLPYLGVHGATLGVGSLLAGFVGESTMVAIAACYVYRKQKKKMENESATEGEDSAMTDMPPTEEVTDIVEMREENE
UniProt Q9NYG5, whole entry, looked up: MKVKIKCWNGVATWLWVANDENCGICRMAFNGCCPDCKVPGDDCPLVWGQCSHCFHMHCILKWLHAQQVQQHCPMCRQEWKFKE
UniProt Q6P6B7: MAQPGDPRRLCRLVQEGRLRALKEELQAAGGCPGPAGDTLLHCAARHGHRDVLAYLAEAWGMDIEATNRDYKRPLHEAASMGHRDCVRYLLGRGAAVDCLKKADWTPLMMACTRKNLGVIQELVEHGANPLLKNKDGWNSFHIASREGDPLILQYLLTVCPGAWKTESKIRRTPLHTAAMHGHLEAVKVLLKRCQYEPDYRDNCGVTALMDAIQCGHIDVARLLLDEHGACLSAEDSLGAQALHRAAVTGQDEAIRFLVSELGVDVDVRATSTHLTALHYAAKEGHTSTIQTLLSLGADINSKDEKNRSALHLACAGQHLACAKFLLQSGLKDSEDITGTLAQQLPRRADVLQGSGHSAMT
UniProt Q6ZW76: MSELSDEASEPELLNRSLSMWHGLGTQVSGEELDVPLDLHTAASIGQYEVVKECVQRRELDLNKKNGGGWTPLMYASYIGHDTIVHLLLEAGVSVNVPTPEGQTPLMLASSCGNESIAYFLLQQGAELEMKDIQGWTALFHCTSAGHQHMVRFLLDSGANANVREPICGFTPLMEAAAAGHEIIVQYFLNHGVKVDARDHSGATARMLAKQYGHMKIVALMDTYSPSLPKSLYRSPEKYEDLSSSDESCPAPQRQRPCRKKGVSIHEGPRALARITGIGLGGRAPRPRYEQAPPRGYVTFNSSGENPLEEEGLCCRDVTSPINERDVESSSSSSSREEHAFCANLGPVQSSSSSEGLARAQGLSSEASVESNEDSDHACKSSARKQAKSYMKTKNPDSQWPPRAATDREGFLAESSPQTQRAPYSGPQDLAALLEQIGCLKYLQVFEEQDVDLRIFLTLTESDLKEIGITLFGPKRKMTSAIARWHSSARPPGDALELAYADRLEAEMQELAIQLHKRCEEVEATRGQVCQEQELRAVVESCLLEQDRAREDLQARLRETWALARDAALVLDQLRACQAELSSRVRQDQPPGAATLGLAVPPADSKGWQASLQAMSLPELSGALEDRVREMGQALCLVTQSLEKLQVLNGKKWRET
UniProt O75342: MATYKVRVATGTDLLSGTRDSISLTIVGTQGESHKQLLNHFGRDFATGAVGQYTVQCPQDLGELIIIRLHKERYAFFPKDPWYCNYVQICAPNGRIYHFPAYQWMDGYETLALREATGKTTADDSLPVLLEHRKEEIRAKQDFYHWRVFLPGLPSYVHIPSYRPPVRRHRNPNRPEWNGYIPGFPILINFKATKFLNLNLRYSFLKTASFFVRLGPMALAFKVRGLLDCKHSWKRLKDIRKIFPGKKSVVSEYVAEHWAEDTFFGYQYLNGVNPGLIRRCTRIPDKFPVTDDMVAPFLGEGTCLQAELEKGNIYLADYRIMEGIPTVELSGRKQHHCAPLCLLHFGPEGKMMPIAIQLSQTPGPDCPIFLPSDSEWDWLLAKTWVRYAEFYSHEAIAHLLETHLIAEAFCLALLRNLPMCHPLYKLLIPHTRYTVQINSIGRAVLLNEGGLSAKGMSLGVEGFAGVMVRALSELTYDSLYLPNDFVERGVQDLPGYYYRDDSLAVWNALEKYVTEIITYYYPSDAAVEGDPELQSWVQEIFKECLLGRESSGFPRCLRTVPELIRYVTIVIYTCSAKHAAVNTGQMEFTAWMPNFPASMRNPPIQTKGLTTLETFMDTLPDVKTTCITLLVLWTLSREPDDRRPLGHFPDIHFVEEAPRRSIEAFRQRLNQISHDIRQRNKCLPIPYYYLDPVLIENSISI
UniProt P30838: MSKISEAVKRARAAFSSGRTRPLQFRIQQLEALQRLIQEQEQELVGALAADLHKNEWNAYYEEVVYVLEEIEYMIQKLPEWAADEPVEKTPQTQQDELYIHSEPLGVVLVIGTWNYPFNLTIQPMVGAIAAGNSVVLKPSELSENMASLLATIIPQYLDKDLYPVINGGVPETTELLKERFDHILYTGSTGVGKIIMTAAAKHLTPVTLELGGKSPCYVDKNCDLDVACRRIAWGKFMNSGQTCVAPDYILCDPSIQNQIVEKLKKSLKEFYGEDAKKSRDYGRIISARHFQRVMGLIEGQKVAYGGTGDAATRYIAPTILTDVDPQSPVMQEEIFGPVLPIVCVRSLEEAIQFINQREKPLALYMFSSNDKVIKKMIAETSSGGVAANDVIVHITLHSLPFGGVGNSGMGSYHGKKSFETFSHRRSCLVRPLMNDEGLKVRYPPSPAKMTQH
UniProt Q92685: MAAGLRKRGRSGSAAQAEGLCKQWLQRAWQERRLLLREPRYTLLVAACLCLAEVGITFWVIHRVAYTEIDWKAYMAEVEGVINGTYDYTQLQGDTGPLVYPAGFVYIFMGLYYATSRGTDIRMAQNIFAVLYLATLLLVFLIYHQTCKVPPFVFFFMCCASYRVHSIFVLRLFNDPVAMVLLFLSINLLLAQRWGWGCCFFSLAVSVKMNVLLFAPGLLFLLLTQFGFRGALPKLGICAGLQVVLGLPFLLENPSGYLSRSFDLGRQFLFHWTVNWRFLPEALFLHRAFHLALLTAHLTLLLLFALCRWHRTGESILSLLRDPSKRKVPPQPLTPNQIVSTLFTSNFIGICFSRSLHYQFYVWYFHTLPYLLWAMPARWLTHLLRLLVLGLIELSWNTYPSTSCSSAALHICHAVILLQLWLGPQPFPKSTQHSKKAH

The other results are listed elsewhere or left out.

Compound in this assay: CN1CCN(c2nc(C3=C(c4c[nH]c5ccccc45)C(=O)NC3=O)c3ccccc3n2)CC1 [sotrastaurin]
Nature of the assay: log2 fold change, soluble protein after heating vs DMSO (PISA); higher = thermal stabilisation; K562 lysate, 10 uM; active = over 0.2 and 3.5 SD of the protein, either way, in both replicates (recomputed). The method in brief: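 Thermal stability, expressed as log-two fold change relative to solvent controls, is given from duplicates. Crude K562 extract in PBS pH 7.4 with 1 mM MgCl2, at 1 mg/mL protein, was treated with 10 μM compound for 30 min and heated in aliquots for 3 min across 48°C-58°C. After pooling, adjustment to 0.5% NP-40 at 4°C and centrifugation at 21,000xg for 90 min, supernatant protein was measured by TMTpro 16plex LC-MS/MS with channel sums equalised.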
As for AMBRA1 isoform 5 (UniProt Q9C0C7), the log2 fold change was inactive: 0.063.

As to ANKRD31 (UniProt Q8N7Z5), the log2 fold change was inactive: -0.038.

In the case of ALG11 (UniProt Q2TAA5), the log2 fold change was inactive: 0.005.

With ANKRD29 (UniProt Q8N6D5), the log2 fold change was inactive: -0.047.

Consider ANKRD30A (UniProt Q9BXX3), for which the log2 fold change was inactive: 0.032.

Regarding ANKRD40 (UniProt Q6AI12), the log2 fold change is inactive: 0.012.

With ANAPC16 (UniProt Q96DE5), the log2 fold change was inactive: -0.01.

Turning to ANXA6 (UniProt E5RK69), the log2 fold change is inactive: 0.278.

As for ANKHD1 isoform 2 (UniProt Q8IWZ3), the log2 fold change was inactive: 0.056.

In the case of ANKRD50 (UniProt Q9ULJ7), the log2 fold change is inactive: -0.068.

In the case of AP4M1 (UniProt O00189), the log2 fold change is inactive: -0.041.

Turning to AMOTL1 (UniProt Q8IY63), the log2 fold change is inactive: 0.012.

For ALDH9A1 (UniProt P49189), the log2 fold change is inactive: 0.008.

For the target ANKH (UniProt Q9HCJ1), the log2 fold change is inactive: 0.044.

ANAPC11 (UniProt Q9NYG5): the log2 fold change was inactive: -0.083.

In the case of ANKLE2 (UniProt Q86XL3), the log2 fold change is inactive: -0.063.

On to ANKRD16 (UniProt Q6P6B7), for which the log2 fold change was inactive: 0.048.

ANKS3 (UniProt Q6ZW76): the log2 fold change was inactive: -0.04.

Regarding ALOX12B (UniProt O75342), the log2 fold change was inactive: 0.009.

As for AP1B1 isoform 3 (UniProt Q10567), the log2 fold change is inactive: 0.069.

With ALDH3A1 (UniProt P30838), the log2 fold change was inactive: -0.007.

ALG3 (UniProt Q92685): the log2 fold change is inactive: 0.029.

As for ANK2 (UniProt Q01484), the log2 fold change is inactive: 0.085.
